The list shows a part of the results.
Key:
Test in all cases: glycan array binding signal (z-score within array); higher = stronger binding
Details in all cases: glycan notation: IUPAC condensed, linker removed
[1] = biological target: GlcNAc(b1-4)GlcNAc(b1-4)GlcNAc(b1-4)GlcNAc(b1-4)GlcNAc(b1-4)GlcNAc
Method in brief: (§1)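 Glycan array binding is given as a within-array Z-score, which can be read as non-binding when negative. The arrays, 3228 of them, came from the Consortium for Functional Glycomics database and were retained only where the protein sequence was available. Z-scores were averaged across arrays of the same protein sequence at different concentrations or buffers and across linkers.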

[2] = biological target: GlcNAc(b1-4)[GlcNAc(b1-6)]GalNAc
Method in brief: as §1

[3] = biological target: GlcNAc(b1-6)Gal(b1-4)GlcNAc
Method in brief: as §1

GlcNAc(b1-6)GalNAc = biological target: GlcNAc(b1-6)GalNAc
Method in brief: as §1

[4] = biological target: GlcNAc6S(b1-3)Gal(b1-4)GlcNAc
Method in brief: as §1

Kdn(a2-3)Gal(b1-3)GalNAc = biological target: Kdn(a2-3)Gal(b1-3)GalNAc
Method in brief: as §1

Kdn(a2-3)Gal(b1-3)GlcNAc = biological target: Kdn(a2-3)Gal(b1-3)GlcNAc
Method in brief: as §1

Kdn(a2-3)Gal(b1-4)Glc = biological target: Kdn(a2-3)Gal(b1-4)Glc
Method in brief: as §1

Kdn(a2-3)Gal(b1-4)GlcNAc = biological target: Kdn(a2-3)Gal(b1-4)GlcNAc
Method in brief: as §1

[5] = biological target: Kdn(a2-3)Gal(b1-4)[Fuc(a1-3)]GlcNAc
Method in brief: as §1

Kdn(a2-6)Gal(b1-4)GlcNAc = biological target: Kdn(a2-6)Gal(b1-4)GlcNAc
Method in brief: as §1

[6] = biological target: Man(a1-2)Man(a1-2)Man(a1-3)Man
Method in brief: as §1

[7] = biological target: Man(a1-2)Man(a1-2)Man(a1-6)[Man(a1-3)]Man
Method in brief: as §1

Man(a1-2)Man(a1-3)Man = biological target: Man(a1-2)Man(a1-3)Man
Method in brief: as §1

[8] = biological target: Man(a1-2)Man(a1-3)[Man(a1-2)Man(a1-6)]Man
Method in brief: as §1

[9] = biological target: Man(a1-2)Man(a1-3)[Man(a1-2)Man(a1-6)]Man(a1-6)[Man(a1-2)Man(a1-2)Man(a1-3)]Man
Method in brief: as §1

[10] = biological target: Man(a1-2)Man(a1-3)[Man(a1-2)Man(a1-6)]Man(a1-6)[Man(a1-2)Man(a1-2)Man(a1-3)]Man(b1-4)GlcNAc(b1-4)GlcNAc
Method in brief: as §1

[11] = biological target: Man(a1-2)Man(a1-3)[Man(a1-6)]Man(a1-6)[Man(a1-2)Man(a1-3)]Man(b1-4)GlcNAc(b1-4)GlcNAc
Method in brief: as §1

[12] = biological target: Man(a1-2)Man(a1-6)[Man(a1-3)]Man(a1-6)[Man(a1-2)Man(a1-2)Man(a1-3)]Man
Method in brief: as §1

[13] = biological target: Man(a1-2)Man(a1-6)[Man(a1-3)]Man(a1-6)[Man(a1-2)Man(a1-2)Man(a1-3)]Man(b1-4)GlcNAc(b1-4)GlcNAc
Method in brief: as §1

Man(a1-3)[Man(a1-6)]Man = biological target: Man(a1-3)[Man(a1-6)]Man
Method in brief: as §1

[14] = biological target: Man(a1-3)[Man(a1-6)]Man(a1-6)[Man(a1-2)Man(a1-3)]Man(b1-4)GlcNAc(b1-4)GlcNAc
Method in brief: as §1

[15] = biological target: Man(a1-3)[Man(a1-6)]Man(a1-6)[Man(a1-3)]Man
Method in brief: as §1

[16] = biological target: Man(a1-3)[Man(a1-6)]Man(a1-6)[Man(a1-3)]Man(b1-4)GlcNAc(b1-4)GlcNAc
Method in brief: as §1

[17] = biological target: Man(a1-3)[Man(a1-6)]Man(b1-4)GlcNAc(b1-4)GlcNAc
Method in brief: as §1

[18] = biological target: Man(a1-3)[Man(a1-6)]Man(b1-4)GlcNAc(b1-4)[Fuc(a1-6)]GlcNAc
Method in brief: as §1

Man(a1-6)Man = biological target: Man(a1-6)Man
Method in brief: as §1

Man(b1-4)GlcNAc = biological target: Man(b1-4)GlcNAc
Method in brief: as §1

MurNAc(b1-4)GlcNAc = biological target: MurNAc(b1-4)GlcNAc
Method in brief: as §1

Neu5Ac(a2-3)Gal = biological target: Neu5Ac(a2-3)Gal
Method in brief: as §1

[19] = biological target: Neu5Ac(a2-3)Gal(b1-3)GalNAc
Method in brief: as §1

[20] = biological target: Neu5Ac(a2-3)Gal(b1-3)GalNAc(b1-3)Gal(a1-4)Gal(b1-4)Glc
Method in brief: as §1

[21] = biological target: Neu5Ac(a2-3)Gal(b1-3)GalNAc(b1-4)[Neu5Ac(a2-3)]Gal(b1-4)Glc
Method in brief: as §1

[22] = biological target: Neu5Ac(a2-3)Gal(b1-3)GalNAc(b1-4)[Neu5Ac(a2-8)Neu5Ac(a2-3)]Gal(b1-4)Glc
Method in brief: as §1

[23] = biological target: Neu5Ac(a2-3)Gal(b1-3)GalNAc6S
Method in brief: as §1

[24] = biological target: Neu5Ac(a2-3)Gal(b1-3)GlcNAc
Method in brief: as §1

[25] = biological target: Neu5Ac(a2-3)Gal(b1-3)GlcNAc(b1-2)Man
Method in brief: as §1

[26] = biological target: Neu5Ac(a2-3)Gal(b1-3)GlcNAc(b1-2)Man(a1-3)[GlcNAc(b1-4)][Neu5Ac(a2-3)Gal(b1-3)GlcNAc(b1-2)Man(a1-6)]Man(b1-4)GlcNAc(b1-4)GlcNAc
Method in brief: as §1

[27] = biological target: Neu5Ac(a2-3)Gal(b1-3)GlcNAc(b1-2)Man(a1-3)[Neu5Ac(a2-3)Gal(b1-3)GlcNAc(b1-2)Man(a1-6)]Man(b1-4)GlcNAc(b1-4)GlcNAc
Method in brief: as §1

[28] = biological target: Neu5Ac(a2-3)Gal(b1-3)GlcNAc(b1-2)[Neu5Ac(a2-3)Gal(b1-3)GlcNAc(b1-4)]Man(a1-6)[Neu5Ac(a2-3)Gal(b1-3)GlcNAc(b1-2)Man(a1-3)]Man(b1-4)GlcNAc(b1-4)GlcNAc
Method in brief: as §1

[29] = biological target: Neu5Ac(a2-3)Gal(b1-3)GlcNAc(b1-3)Gal(b1-3)GlcNAc
Method in brief: as §1

[30] = biological target: Neu5Ac(a2-3)Gal(b1-3)GlcNAc(b1-3)Gal(b1-4)GlcNAc
Method in brief: as §1

[31] = biological target: Neu5Ac(a2-3)Gal(b1-3)GlcNAc(b1-3)GalNAc
Method in brief: as §1

[32] = biological target: Neu5Ac(a2-3)Gal(b1-3)GlcNAc(b1-4)Gal(b1-4)Glc
Method in brief: as §1

[33] = biological target: Neu5Ac(a2-3)Gal(b1-3)GlcNAc(b1-6)GalNAc
Method in brief: as §1

B1: Epa3to2 (Candida glabrata) (protein)
chain: MGSSHHHHHHSSGLVPRGSHMKRELSSQNPFGYPIGCSPQDVAIIPGLTMELYSYPIVSGTPPNCYDASYVDPEYPRTGYLKRKMVGKSTGVTGNLNYKYSVEKACMVKYGNLPAGYNYNEPLTVSNFTMILYGYFKAQTTGLHTFFVNADDLLYINFGAGNAFDCCKREDSKTKLGEYVAYDIWHVDSSKNKVSLFLEKDLYYPIRMFFNNRDNNSSLDLSFSVNGATDQISDFSGYLYSVPDQPDTCPAHIGYDTTCR
[1]
  glycan array binding signal (z-score): -0.884
[2]
  glycan array binding signal (z-score): -0.67
[3]
  glycan array binding signal (z-score): 0.628
GlcNAc(b1-6)GalNAc
  glycan array binding signal (z-score): 0.08
[4]
  glycan array binding signal (z-score): 0.752
Kdn(a2-3)Gal(b1-3)GalNAc
  glycan array binding signal (z-score): 0.108
Kdn(a2-3)Gal(b1-3)GlcNAc
  glycan array binding signal (z-score): 1.72
Kdn(a2-3)Gal(b1-4)Glc
  glycan array binding signal (z-score): -0.039
Kdn(a2-3)Gal(b1-4)GlcNAc
  glycan array binding signal (z-score): -0.611
[5]
  glycan array binding signal (z-score): -0.049
Kdn(a2-6)Gal(b1-4)GlcNAc
  glycan array binding signal (z-score): 1.52
[6]
  glycan array binding signal (z-score): -0.08
[7]
  glycan array binding signal (z-score): 0.924
Man(a1-2)Man(a1-3)Man
  glycan array binding signal (z-score): -0.593
[8]
  glycan array binding signal (z-score): -0.234
[9]
  glycan array binding signal (z-score): -0.546
[10]
  glycan array binding signal (z-score): -1.12
[11]
  glycan array binding signal (z-score): -0.278
[12]
  glycan array binding signal (z-score): -1.63
[13]
  glycan array binding signal (z-score): 1.81
Man(a1-3)[Man(a1-6)]Man
  glycan array binding signal (z-score): 1.28
[14]
  glycan array binding signal (z-score): 3.92
[15]
  glycan array binding signal (z-score): 0.52
[16]
  glycan array binding signal (z-score): 1.83
[17]
  glycan array binding signal (z-score): 0.159
[18]
  glycan array binding signal (z-score): 0.075
Man(a1-6)Man
  glycan array binding signal (z-score): 0.982
Man(b1-4)GlcNAc
  glycan array binding signal (z-score): 1.59
MurNAc(b1-4)GlcNAc
  glycan array binding signal (z-score): -0.143
Neu5Ac(a2-3)Gal
  glycan array binding signal (z-score): -0.898
[19]
  glycan array binding signal (z-score): -0.307
[20]
  glycan array binding signal (z-score): 0.903
[21]
  glycan array binding signal (z-score): -0.337
[22]
  glycan array binding signal (z-score): -0.697
[23]
  glycan array binding signal (z-score): 1.62
[24]
  glycan array binding signal (z-score): -0.685
[25]
  glycan array binding signal (z-score): -0.561
[26]
  glycan array binding signal (z-score): 0.082
[27]
  glycan array binding signal (z-score): -0.658
[28]
  glycan array binding signal (z-score): 0.1
[29]
  glycan array binding signal (z-score): -1.4
[30]
  glycan array binding signal (z-score): 0.754
[31]
  glycan array binding signal (z-score): 0.895
[32]
  glycan array binding signal (z-score): -1.01
[33]
  glycan array binding signal (z-score): 1.42
